Source: US20200095636

What was measured:
[1] = biological target: EGFR (epidermal growth factor receptor) (Homo sapiens) (UniProt P00533); test: activity in cells; settings: 2'-F C/U, 2'-OH purines, protein on the cell surface
[2] = biological target: EGFR (epidermal growth factor receptor) (Homo sapiens) (UniProt P00533); test: flow cytometry; settings: 2'-F C/U, 2'-OH purines, 3' idT; non-targeting control aptamer, background staining of A431 cells; protein on the cell surface; label: 5' AF488

Sequence: GGACGGAUUUAAUCGCCGUAGAAAGCAUGUCAAAGCCGGAACCGUCC [E07]
- functional effect of the aptamer ([1]; 3' idT, inhibits EGF-induced EGFR phosphorylation in A431, restored by 5 uM mA9): active

Sequence: GGAAAAUAGGCGUAGUGAUUAUGAAUCGUGUGCUAAUACACGCC [C36-SA 2:1 (bC36:streptavidin)]
- functional effect of the aptamer ([1]; does not inhibit EGF-stimulated EGFR phosphorylation, variant of C36, dose not given here): not active

Sequence: GGCGUAGUGAUUAUGAAUCGUGUGCUAAUACACGCC [C36]
- binding result [2]: no binding
- functional effect of the aptamer ([1]; 3' idT, does not inhibit EGF-stimulated EGFR phosphorylation, dose not given here): not active

Sequence: GGGAUUUAGGACGGAUUUAAUCGCCGUAGAAAGCAUGUCAAAGCCGGAACCGUCC [E07-SA 2:1 (bE07:streptavidin)]
- functional effect of the aptamer ([1]; inhibits EGF-induced EGFR phosphorylation in A431, restored by 5 uM mA9, 5 min 37 C, variant of E07): active

A negative result means that nothing was seen under these conditions. For some assays here: Where cells or extracts were used, other partners may take part. For some assays here: The exact form of at least one protein or probe is not confirmed.
